Experimental data: PubChem BioAssay AID743454 (Peter MacCallum Cancer Centre, 2014)

- Assay: 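Knock-downs lowering viability or raising caspase 3/7 activity in vorinostat-treated resistant cells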 (primary screen)
- System: human HCT116-VR colon cancer cells, selected for vorinostat resistance
- Reagent: siRNA pool against human genes, 40 nM siRNA pool
- Time to read-out: vorinostat for 24 h, read-out about 72 h after transfection
- Challenge: vorinostat at 2.5 µM final
- Measured: 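Cell viability by CellTiter-Fluor and caspase 3/7 activity by luminescence, each scaled to mock wells per plate, duplicates averaged, then robust z-scored over all plates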
- Reading the numbers: viability robust z-score: higher = more viable cells than screen typical; caspase robust z-score: higher = more caspase 3/7 activity than screen typical
- Rule for the call: 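Hits are knock-downs in viability class RV1/RV2 or caspase class CA1/CA2, excluding ones that killed cells in the no-drug cell-count arm; hits then retested with single siRNAs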
The whole screen tested about 18,000 reagents; below is a part drawn at random. 450 of all reagents (2.5%) count as active. 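Single biological run; no consistent viability z cut-off exists, so the class columns, not z-scores, define the calls.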 A number with no mark means an inactive call. No sequences are given here.

gene,viability hit class,caspase hit class,viability robust z-score,caspase robust z-score
PCDH11X (GeneID 27328),no change,no change,-0.11,-0.96
CBX1 (GeneID 10951),no change,no change,-1.25,-1.03
TECTA (GeneID 7007),no change,no change,0.84,-1.08
GNAI2 (GeneID 2771),no change,no change,1.66,1.92
SPIC (GeneID 121599),no change,no change,0.32,-0.87
MTFR2 (GeneID 113115),RV1 (reduced viability) (active),no change,-3.38,-0.78
DBR1 (GeneID 51163),no change,no change,-0.35,0.7
WBP11 (GeneID 51729),no change,no change,-3.08,-1.25
ZNF10 (GeneID 7556),no change,no change,1.21,-0.32
C3P1 (GeneID 388503),no change,no change,-0.1,0.2
PHF7 (GeneID 51533),no change,no change,-0.11,-0.12
ANKRD36 (GeneID 375248),no change,no change,0.84,1.6
ERCC1 (GeneID 2067),no change,no change,-1.08,0.99
HCN4 (GeneID 10021),no change,no change,-0.08,-0.02
NFAM1 (GeneID 150372),no change,no change,1.69,-0.14
DRC4 (GeneID 2622),no change,no change,2.18,1.04
HS3ST2 (GeneID 9956),no change,no change,0.84,-0.16
THRAP3 (GeneID 9967),no change,no change,-0.01,0.01
OR51A7 (GeneID 119687),no change,no change,-0.78,0.47
DUSP23 (GeneID 54935),no change,no change,-0.52,2.65
DDX12P (GeneID 440081),no change,no change,0.15,-0.55
CYP1B1 (GeneID 1545),no change,no change,-3.31,1.74
RNPS1 (GeneID 10921),no change,no change,-3.6,4.07
CHST9 (GeneID 83539),no change,no change,-1.91,1.73
TENT5A (GeneID 55603),no change,no change,0.46,1.75
MRPS11 (GeneID 64963),no change (active),CA1 (caspase activation),-1.23,5.99
SPACA7 (GeneID 122258),no change,no change,0.84,-0.44
HMGXB4 (GeneID 10042),no change,no change,0.39,0.57
ANKRD13D (GeneID 338692),no change,no change,0.15,0.46
ATXN2 (GeneID 6311),no change,no change,0.59,-0.94
NHERF2 (GeneID 9351),no change,no change,0.1,1.5
IGFBP4 (GeneID 3487),no change,no change,0.82,1.29
GPANK1 (GeneID 7918),no change,no change,0.51,0.11
ACBD7 (GeneID 414149),no change,no change,1.57,-0.6
TSSK6 (GeneID 83983),no change,no change,0.16,0.52
CELF1 (GeneID 10658),no change,no change,-1.09,-1.1
CPAMD8 (GeneID 27151),no change,no change,1.88,0.17
BCL11B (GeneID 64919),no change,no change,-0.54,0.03
ABHD8 (GeneID 79575),no change,no change,0.79,0.52
STX7 (GeneID 8417),no change,no change,2.21,-0.15
ZNF566 (GeneID 84924),no change,no change,-0.85,1.26
RNF122 (GeneID 79845),RV2 (reduced viability) (active),no change,-4.22,1.41
MAPRE2 (GeneID 10982),no change,no change,-1.02,0.79
ARHGAP21 (GeneID 57584),no change,no change,0.97,3.73
HOXC4 (GeneID 3221),no change,no change,0.73,-0.42
MAL2 (GeneID 114569),no change,no change,0.96,0.2
EXOSC2 (GeneID 23404),no change,no change,-1.57,-1.21
ENOPH1 (GeneID 58478),no change,no change,1.33,-0.02
NCAPD3 (GeneID 23310),no change,no change,0.5,0.74
C1orf122 (GeneID 127687),no change,no change,1.01,-0.7
EBF3 (GeneID 253738),no change,no change,0.86,-0.54
WDR88 (GeneID 126248),no change,no change,-0.22,1.56
SIX4 (GeneID 51804),no change,no change,-0.3,0.65
RAP1A (GeneID 5906),no change,no change,-1.97,1.25
RHOG (GeneID 391),no change,no change,0.12,-0.57
PKP2 (GeneID 5318),no change,no change,-0.05,0.05
AGO4 (GeneID 192670),no change,no change,-0.28,1.4
SYTL4 (GeneID 94121),no change,no change,0.84,3.71
EOLA1 (GeneID 91966),no change,no change,0.67,-0.06
TLE1 (GeneID 7088),no change,no change,0.91,1.86
TUBB3 (GeneID 10381),no change,no change,-0.22,0.32
EID3 (GeneID 493861),no change,no change,0.4,-0.41
CCL5 (GeneID 6352),no change,no change,0.39,-0.25
AASDH (GeneID 132949),no change,no change,0.7,-0.2
KRTAP4-12 (GeneID 83755),no change,no change,0.64,0.35
SLC35E1 (GeneID 79939),no change,no change,-0.02,-0.68
CEACAM21 (GeneID 90273),no change,no change,-0.56,-0.35
SDHAF3 (GeneID 57001),no change,no change,0.22,-0.4
SCNN1B (GeneID 6338),no change,no change,0.75,1.12
AHCY (GeneID 191),no change,no change,-1.38,0.22
PLAUR (GeneID 5329),no change,no change,0.52,0.01
TCF21 (GeneID 6943),no change,no change,-1.25,-0.46
TRAPPC11 (GeneID 60684),no change,no change,-0.57,1.24
